Data published in patent publication US20260001871A1, “TRIAZOLE DERIVATIVES AS MODULATORS OF MAS-RELATED G-PROTEIN RECEPTOR D” (ESCIENT PHARMACEUTICALS, INC., priority 2022, published 2026).
The match of structure and compound is tentative.

The chains behind the UniProt entries cited, without tags or fusion partners.
UniProt Q8TDS7, whole entry: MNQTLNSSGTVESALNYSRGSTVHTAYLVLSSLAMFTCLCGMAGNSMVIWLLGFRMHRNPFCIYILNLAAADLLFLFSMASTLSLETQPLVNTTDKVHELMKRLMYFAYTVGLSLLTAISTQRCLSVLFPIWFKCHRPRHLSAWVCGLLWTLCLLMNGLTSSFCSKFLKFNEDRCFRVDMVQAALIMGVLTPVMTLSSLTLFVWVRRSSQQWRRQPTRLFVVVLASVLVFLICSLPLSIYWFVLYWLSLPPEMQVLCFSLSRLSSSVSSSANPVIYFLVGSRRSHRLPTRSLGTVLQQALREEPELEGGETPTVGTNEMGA

Molecular target: human MRGPRD (Homo sapiens, UniProt Q8TDS7)
Test: MRGPRD antagonist activity, IP-One HTRF assay in CHO cells stably expressing human MRGPRD (versus 100 μM β-Alanine agonist)
Conditions: read-out: mRGPRD Antagonist Activity
Method: Chinese Hamster Ovary (CHO) cells stably expressing human MRGPRD (Eurofins, San Diego CA) were plated in a 384-well plate at 20,000 cells per well in 12 μL of Optimem (Fisher Scientific 11-058-021). Plates were kept in the incubator at 37° C. overnight. Antagonists were solubilized at a concentration of 10 mM in DMSO, and the agonists were solubilized to stock concentrations of either 50 mM in H2O (β-Alanine) or 10 mM in DMSO (all others) and then diluted in assay buffer (final concentrations of 5.7 mM Tris-HCl, 43 mM NaCl, 50 mM LiCl, pH=8). The concentration of DMSO was normalized across the plate. Antagonists were added to the plate using a Tecan D300 Digital Dispenser at nanoliter/picoliter volumes and 2 μL of agonists in assay buffer were added to each well for a final assay volume of 14 μL. Plates were covered and incubated for 1 h at 37° C. and then for 1 h at room temperature. IP-1 standards and HTRF detection reagents were added according to an IP-One—Gq Kit purchased from Cisbio (part number 621PAPEJ) and incubated in the dark for 1 h at room temperature. Assay plates were read on either a Molecular Devices SpectraMax iD5 plate reader or a BMG ClarioStar plate reader. The HTRF ratio was calculated form the raw data and graphed using GraphPad Prism to calculate IC50 values. Data are expressed as average IC50 values and average percent antagonism calculated as a percent of the maximum efficacy response. For these studies, the variability of the data was assessed by determining the standard error of mean (SEM).
The activity ranges are denoted as follows: “+++++” denotes antagonist activity<100 nM; “++++” denotes antagonist activity between 100 and 500 nM; “+++” denotes activity between 500 and 1000 nM; “++” denotes activity between 1000 and 3000 nM; and “+” denotes activity>3000 nM.

Question: How did the IC50 turn out when `Cn1cncc1-c1ccc(-n2nnc(C(=O)Nc3ccncc3)c2C2CC2)cc1` was run?
Answer: 500 to 1000 nM

Question: `O=C(Nc1ccncc1)c1nnn(-c2ccc(-c3cnn(CC4CC4)c3)cc2)c1C1CC1` was tested. Which IC50 did it give?
Answer: 100 to 500 nM

Question: `COc1ncccc1C1(NC(=O)c2nnn(-c3ccc(-c4ccc(C#N)cc4)cc3)c2C2CC2)CC1` was tested. Which IC50 did it give?
Answer: 1000 to 3000 nM
